Source: the supplement of paper PMC10849652
The other results are listed elsewhere or left out.

By UniProt entry, the sequences of proteins in these tests, tags left out. Where a name states a change or a piece, a line headed by the entry shows the natural chain unless it says otherwise.
UniProt Q5BKZ1: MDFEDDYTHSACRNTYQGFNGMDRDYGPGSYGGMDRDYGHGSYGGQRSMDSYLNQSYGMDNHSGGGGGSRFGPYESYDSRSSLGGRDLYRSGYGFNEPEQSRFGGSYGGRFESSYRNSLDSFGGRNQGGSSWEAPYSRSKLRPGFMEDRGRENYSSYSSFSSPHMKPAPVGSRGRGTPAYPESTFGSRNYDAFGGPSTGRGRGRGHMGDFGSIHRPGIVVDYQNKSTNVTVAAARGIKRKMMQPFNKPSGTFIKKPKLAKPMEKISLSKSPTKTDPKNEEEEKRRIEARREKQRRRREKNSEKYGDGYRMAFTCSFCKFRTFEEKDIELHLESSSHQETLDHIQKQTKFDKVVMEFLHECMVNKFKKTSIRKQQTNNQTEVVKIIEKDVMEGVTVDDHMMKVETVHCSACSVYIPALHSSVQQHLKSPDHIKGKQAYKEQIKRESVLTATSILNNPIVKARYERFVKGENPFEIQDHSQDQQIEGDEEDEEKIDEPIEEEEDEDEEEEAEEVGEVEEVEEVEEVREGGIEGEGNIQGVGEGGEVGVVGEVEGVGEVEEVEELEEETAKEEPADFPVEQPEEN
UniProt Q19AV6: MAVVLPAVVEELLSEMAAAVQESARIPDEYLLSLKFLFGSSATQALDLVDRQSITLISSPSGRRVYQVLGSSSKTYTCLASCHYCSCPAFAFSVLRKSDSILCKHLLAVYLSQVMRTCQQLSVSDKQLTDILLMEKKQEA
UniProt Q9UID6: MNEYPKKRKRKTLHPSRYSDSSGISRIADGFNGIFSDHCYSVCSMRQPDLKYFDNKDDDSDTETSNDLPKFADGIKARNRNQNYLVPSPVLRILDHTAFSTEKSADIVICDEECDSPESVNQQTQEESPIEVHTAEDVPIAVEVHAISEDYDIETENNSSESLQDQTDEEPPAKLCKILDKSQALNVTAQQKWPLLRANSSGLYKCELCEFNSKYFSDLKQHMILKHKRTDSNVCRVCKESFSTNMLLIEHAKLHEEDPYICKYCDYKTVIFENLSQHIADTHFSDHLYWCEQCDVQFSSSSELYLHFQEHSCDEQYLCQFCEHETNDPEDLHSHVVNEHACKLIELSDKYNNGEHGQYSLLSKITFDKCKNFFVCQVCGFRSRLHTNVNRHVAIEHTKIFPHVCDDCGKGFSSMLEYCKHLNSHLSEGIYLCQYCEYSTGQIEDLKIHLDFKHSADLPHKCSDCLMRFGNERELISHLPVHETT
UniProt Q99676: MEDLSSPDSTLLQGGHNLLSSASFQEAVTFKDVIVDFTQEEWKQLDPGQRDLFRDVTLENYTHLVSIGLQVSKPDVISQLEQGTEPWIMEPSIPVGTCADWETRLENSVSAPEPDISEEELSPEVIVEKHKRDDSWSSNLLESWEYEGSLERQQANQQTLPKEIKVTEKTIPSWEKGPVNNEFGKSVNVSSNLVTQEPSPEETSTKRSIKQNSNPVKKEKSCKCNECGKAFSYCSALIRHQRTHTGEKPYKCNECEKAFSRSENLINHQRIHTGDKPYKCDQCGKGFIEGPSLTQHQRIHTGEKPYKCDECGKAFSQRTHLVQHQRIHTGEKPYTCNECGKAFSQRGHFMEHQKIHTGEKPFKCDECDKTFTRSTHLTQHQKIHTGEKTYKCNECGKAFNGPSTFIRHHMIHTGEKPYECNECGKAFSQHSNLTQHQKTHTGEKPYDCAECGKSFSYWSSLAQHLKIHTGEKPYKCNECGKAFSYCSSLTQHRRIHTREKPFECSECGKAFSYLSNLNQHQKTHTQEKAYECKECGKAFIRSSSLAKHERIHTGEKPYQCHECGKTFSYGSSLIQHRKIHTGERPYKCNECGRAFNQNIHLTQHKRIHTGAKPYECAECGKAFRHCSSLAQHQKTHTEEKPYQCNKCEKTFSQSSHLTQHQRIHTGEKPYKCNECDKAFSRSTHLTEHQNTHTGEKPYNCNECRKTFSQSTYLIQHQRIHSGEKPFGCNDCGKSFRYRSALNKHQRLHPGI
UniProt Q8N4W9: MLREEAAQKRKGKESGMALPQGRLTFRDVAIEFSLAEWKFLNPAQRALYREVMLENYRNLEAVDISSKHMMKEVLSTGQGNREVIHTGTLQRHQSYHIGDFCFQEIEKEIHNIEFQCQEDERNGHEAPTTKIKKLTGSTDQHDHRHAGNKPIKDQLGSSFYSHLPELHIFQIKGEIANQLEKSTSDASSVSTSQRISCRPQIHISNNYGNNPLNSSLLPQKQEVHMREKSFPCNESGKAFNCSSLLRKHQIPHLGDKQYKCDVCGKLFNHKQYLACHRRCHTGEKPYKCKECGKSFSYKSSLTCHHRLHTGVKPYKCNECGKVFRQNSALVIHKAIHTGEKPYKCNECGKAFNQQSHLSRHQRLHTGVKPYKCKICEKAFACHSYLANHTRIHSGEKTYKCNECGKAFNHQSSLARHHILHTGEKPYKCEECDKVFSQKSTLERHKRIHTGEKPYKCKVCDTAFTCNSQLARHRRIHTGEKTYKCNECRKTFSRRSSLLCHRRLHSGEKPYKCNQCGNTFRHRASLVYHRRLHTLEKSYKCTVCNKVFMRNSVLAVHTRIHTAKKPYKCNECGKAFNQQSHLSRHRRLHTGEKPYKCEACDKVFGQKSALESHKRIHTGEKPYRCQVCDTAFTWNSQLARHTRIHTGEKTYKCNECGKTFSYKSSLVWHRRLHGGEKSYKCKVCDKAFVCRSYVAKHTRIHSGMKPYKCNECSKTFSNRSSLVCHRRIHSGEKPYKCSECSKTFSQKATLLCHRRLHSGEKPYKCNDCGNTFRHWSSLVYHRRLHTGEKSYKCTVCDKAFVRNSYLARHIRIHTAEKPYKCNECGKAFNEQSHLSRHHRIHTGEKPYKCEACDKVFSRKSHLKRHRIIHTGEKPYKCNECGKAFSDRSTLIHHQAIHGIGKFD
UniProt P59817: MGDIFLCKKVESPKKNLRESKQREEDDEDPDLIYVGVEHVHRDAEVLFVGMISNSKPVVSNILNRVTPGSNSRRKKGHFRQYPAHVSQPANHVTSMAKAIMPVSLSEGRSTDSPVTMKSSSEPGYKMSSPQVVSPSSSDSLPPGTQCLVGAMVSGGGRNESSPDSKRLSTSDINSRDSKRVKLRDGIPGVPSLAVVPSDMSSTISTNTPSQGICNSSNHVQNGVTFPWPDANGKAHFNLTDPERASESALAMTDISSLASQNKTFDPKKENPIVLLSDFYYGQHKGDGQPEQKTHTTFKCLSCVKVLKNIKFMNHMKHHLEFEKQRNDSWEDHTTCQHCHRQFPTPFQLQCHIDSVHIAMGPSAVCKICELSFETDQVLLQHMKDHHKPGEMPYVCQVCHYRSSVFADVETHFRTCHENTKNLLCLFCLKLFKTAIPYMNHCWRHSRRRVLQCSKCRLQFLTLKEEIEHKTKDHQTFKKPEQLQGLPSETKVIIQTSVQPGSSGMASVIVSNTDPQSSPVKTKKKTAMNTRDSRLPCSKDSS
UniProt Q8TF50: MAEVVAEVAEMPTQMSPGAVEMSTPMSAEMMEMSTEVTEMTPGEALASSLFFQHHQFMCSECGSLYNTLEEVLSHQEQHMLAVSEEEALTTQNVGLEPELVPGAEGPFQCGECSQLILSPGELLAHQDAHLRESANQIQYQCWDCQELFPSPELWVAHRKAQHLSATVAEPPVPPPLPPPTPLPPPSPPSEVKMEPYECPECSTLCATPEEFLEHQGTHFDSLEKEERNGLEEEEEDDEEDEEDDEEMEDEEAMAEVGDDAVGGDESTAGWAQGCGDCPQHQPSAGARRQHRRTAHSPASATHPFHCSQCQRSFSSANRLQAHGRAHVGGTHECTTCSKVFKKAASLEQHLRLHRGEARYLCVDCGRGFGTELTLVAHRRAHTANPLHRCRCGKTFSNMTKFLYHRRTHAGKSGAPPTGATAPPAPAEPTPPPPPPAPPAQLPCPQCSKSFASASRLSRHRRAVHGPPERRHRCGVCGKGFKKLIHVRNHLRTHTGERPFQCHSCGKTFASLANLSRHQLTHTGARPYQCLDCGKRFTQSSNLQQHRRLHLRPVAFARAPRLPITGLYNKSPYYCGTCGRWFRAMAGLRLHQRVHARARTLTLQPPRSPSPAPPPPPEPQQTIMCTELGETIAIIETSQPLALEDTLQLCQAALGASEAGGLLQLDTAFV
UniProt Q9BS34: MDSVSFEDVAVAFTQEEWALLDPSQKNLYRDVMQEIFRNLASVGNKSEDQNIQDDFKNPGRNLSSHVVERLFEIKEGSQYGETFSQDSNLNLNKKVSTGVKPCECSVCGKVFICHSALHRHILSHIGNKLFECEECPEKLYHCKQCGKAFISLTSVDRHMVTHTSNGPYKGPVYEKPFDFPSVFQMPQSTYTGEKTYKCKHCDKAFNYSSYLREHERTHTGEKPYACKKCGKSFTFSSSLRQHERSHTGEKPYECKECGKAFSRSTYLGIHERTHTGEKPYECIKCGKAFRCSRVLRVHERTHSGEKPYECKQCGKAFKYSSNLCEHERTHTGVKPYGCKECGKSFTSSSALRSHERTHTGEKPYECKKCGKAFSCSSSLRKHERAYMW
UniProt Q96MX3: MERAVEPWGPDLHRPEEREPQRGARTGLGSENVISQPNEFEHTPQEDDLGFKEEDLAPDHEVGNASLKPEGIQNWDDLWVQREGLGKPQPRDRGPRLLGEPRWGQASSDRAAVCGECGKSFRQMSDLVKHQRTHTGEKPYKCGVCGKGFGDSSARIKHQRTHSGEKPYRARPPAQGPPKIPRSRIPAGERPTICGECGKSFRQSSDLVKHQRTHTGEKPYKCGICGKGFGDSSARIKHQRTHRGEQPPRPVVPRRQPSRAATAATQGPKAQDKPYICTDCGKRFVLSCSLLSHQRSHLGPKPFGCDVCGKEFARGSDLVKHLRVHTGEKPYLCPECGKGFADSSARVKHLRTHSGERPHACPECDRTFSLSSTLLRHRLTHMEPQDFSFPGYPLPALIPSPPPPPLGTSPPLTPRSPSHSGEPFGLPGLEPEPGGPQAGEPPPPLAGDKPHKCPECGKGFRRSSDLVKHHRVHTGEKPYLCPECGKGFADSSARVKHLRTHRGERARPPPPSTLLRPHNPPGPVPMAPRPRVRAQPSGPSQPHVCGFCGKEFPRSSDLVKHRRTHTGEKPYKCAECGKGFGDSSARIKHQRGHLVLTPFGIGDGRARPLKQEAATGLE
UniProt Q6N043: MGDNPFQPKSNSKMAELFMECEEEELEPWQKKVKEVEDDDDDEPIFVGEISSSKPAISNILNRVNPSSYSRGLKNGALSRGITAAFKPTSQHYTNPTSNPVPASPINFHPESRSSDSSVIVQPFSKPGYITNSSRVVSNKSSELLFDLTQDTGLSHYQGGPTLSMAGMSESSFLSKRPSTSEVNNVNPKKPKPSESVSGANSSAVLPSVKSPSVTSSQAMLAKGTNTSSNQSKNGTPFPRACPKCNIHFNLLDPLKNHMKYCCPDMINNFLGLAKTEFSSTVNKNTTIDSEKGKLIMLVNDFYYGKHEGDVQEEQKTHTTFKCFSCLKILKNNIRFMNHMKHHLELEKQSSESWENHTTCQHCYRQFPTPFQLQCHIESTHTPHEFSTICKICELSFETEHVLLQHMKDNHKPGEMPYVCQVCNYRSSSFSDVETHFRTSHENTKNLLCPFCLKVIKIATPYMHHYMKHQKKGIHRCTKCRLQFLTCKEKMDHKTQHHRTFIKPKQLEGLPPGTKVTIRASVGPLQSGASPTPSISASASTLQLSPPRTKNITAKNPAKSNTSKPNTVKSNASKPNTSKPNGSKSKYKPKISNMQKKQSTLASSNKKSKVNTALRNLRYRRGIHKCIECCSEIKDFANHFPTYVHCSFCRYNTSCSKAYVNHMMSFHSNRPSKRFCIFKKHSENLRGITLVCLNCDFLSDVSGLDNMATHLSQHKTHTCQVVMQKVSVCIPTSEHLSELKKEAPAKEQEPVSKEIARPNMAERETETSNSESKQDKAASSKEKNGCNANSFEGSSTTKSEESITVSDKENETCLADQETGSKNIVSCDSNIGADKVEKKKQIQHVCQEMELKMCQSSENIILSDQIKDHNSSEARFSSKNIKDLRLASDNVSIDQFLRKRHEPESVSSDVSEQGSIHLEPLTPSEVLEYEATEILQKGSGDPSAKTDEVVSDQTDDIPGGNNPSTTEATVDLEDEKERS
UniProt Q9Y5A6: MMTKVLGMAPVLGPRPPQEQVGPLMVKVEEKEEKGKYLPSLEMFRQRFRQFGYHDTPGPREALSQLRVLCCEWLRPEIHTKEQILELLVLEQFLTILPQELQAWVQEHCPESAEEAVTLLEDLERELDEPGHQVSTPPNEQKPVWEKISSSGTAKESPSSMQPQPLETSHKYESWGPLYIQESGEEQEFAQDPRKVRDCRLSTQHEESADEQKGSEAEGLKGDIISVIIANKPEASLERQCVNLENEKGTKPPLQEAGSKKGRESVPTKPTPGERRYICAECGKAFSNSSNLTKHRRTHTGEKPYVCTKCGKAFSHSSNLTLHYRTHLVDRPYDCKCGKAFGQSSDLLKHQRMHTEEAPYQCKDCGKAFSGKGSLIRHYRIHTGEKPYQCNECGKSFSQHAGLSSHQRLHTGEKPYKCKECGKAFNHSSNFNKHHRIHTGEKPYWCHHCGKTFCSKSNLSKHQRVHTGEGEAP

Compound: CC1=C2C(=CC=C1)N=C(N(C2=O)C3=CC=CC=C3C)CN4C=NC5=C(N=CN=C54)N
Assay: log2 fold change, soluble protein after heating vs DMSO (PISA); higher = thermal stabilisation; K562 lysate, 10 uM; active = over 0.2 and 3.5 SD of the protein, either way, in both replicates (recomputed)
Procedure, shortened: (§1)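 Log-two fold change in thermal stability relative to solvent controls is reported from duplicates. For each sample, crude K562 extract from dounce-homogenised pellets in PBS pH 7.4 with 1 mM MgCl2, at 1 mg/mL protein, was treated with 10 μM compound for 30 min. Aliquots heated for 3 min across 48°C-58°C were pooled, brought to 0.5% NP-40 at 4°C and cleared at 21,000xg for 90 min. The supernatant was quantified by TMTpro 16plex LC-MS/MS with channel sums equalised.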

| Target | log2 fold change |
| --- | --- |
| ZNF595 (UniProt Q8IYB9) | inactive: -0.06 |
| ZNF93 (UniProt P35789) | inactive: 0.035 |
| ZNF326 (UniProt Q5BKZ1) | inactive: -0.114 |
| ZSWIM7 (UniProt Q19AV6) | inactive: -0.137 |
| ZNF618 (UniProt B1ALC2) | inactive: -0.13 |
| ZNF852 (UniProt Q6ZMS4) | inactive: 0.259 |
| ZNF639 (UniProt Q9UID6) | inactive: 0.083 |
| ZNF655 isoform 2 (UniProt Q8N720) | inactive: -0.14 |

Compound: Cc1sc2c(c1C)C(c1ccc(Cl)cc1)=N[C@@H](CC(=O)OC(C)(C)C)c1nnc(C)n1-2
Assay: as above
Procedure, shortened: as §1

| Target | log2 fold change |
| --- | --- |
| ZNF800 (UniProt Q2TB10) | inactive: 0.167 |
| ZNF146 (UniProt Q15072) | inactive: -0.059 |
| ZNF184 (UniProt Q99676) | inactive: 0.005 |
| ZNF808 (UniProt Q8N4W9) | inactive: -0.045 |
| ZNF93 (UniProt P35789) | inactive: 0.051 |
| ZNF280A (UniProt P59817) | inactive: -0.004 |
| ZNF687 (UniProt Q8N1G0) | inactive: 0.022 |
| ZNF813 (UniProt Q6ZN06) | inactive: 0.251 |
| ZSCAN25 (UniProt Q6NSZ9) | inactive: 0.014 |
| ZNF326 (UniProt Q5BKZ1) | inactive: 0.07 |
| ZNF562 (UniProt Q6V9R5) | inactive: -0.064 |
| ZNF384 (UniProt Q8TF68) | inactive: -0.187 |
| ZNF101 (UniProt Q8IZC7) | inactive: -0.007 |
| ZNF785 (UniProt A8K8V0) | inactive: 0.102 |
| ZGRF1 (UniProt Q86YA3) | inactive: -0.002 |
| ZNF526 (UniProt Q8TF50) | inactive: -0.066 |
| ZNF281 (UniProt Q9Y2X9) | inactive: -0.02 |
| ZSWIM7 (UniProt Q19AV6) | inactive: -0.033 |
| ZNF618 (UniProt B1ALC2) | inactive: -0.11 |
| ZUP1 (UniProt Q96AP4) | inactive: -0.073 |
| ZNF639 (UniProt Q9UID6) | inactive: -0.034 |

Compound: c1ccc([C@@H]2C[C@H]2NC2CCNCC2)cc1
Assay: as above
Procedure, shortened: as §1

| Target | log2 fold change |
| --- | --- |
| ZNF670 (UniProt Q9BS34) | inactive: -0.147 |
| ZNF48 (UniProt Q96MX3) | inactive: 0.037 |
| ZNF280D (UniProt Q6N043) | inactive: 0.035 |
| ZSCAN21 (UniProt Q9Y5A6) | inactive: -0.074 |
| ZNF286A (UniProt Q9HBT8) | inactive: -0.068 |
| ZNF595 (UniProt Q8IYB9) | inactive: -0.019 |
| ZNF813 (UniProt Q6ZN06) | inactive: 0.143 |
| ZNRD1 (UniProt Q9P1U0) | inactive: -0.099 |
| ZNF326 (UniProt Q5BKZ1) | inactive: -0.01 |
| ZGRF1 (UniProt Q86YA3) | inactive: 0.224 |
| ZNF526 (UniProt Q8TF50) | inactive: 0.123 |
| ZNF324 (UniProt O75467) | inactive: -0.084 |
| ZSWIM7 (UniProt Q19AV6) | inactive: -0.184 |
| ZNF414 isoform 2 (UniProt Q96IQ9) | inactive: 0.123 |
| ZNF618 (UniProt B1ALC2) | inactive: 0.058 |
| ZNF852 (UniProt Q6ZMS4) | inactive: 0.116 |
| ZNF639 (UniProt Q9UID6) | inactive: 0.027 |
| ZNF655 isoform 2 (UniProt Q8N720) | inactive: 0.115 |
